In paper PMC8932751 (Clinical and Translational Science, 2021):

How the values were obtained:
[1] = not given; remark: listed apart in the source
[2] = adjusted for the administered dose

SMILES: CC(C)c1c(C(=O)Nc2ccccc2)c(-c2ccccc2)c(-c2ccc(F)cc2)n1CC[C@@H](O)C[C@@H](O)CC(=O)O [atorvastatin]
- θSLCO1B1 521CC (covariate effect on CL/F) (CL/F = θCL × (1 + θSLCO1B1), CC homozygotes, investigation cohort): −0.041
- θSLCO1B1 521TC (covariate effect on CL/F) (CL/F = θCL × (1 + θSLCO1B1), heterozygotes, investigation cohort): −0.402
- ωCL support (SD), between-subject variability (support datasets): 0.195
- decrease in CK levels for each increment of 1 L h^−1 in CL/F ([1]; linear regression): 0.20 units
- CL/F threshold for risk of myalgia (ROC) ([1]; sensitivity 83.3%, specificity 73.0%, ROC AUC 0.77): 414.67 L/h
- correlation between CL/F and change in LDL cholesterol from baseline (r) [2]: −0.49
- correlation between CL/F and change in total cholesterol from baseline (r) [2]: −0.44
